# Data as given in article PMC6010280.
# T1: intein-BHMT (betaine homocysteine S-methyltransferase) (R. norvegicus) (UniProt O09171)
# T1 sequence: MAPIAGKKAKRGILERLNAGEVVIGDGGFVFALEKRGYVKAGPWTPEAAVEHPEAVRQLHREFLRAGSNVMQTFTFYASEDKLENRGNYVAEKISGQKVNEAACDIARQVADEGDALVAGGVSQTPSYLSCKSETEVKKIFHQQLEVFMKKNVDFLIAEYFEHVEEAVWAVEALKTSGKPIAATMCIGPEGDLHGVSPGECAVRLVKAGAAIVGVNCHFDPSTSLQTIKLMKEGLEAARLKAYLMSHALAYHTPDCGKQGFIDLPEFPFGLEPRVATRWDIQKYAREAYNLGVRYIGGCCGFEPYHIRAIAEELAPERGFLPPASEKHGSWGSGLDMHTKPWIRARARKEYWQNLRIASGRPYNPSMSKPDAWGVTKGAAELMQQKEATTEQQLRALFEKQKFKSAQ
# Molecular target: T1, intein-BHMT (betaine homocysteine S-methyltransferase) (R. norvegicus)
# Experiment: affinity purification with mass spectrometry; intein-BHMT held on chitin beads; rat liver cytosol first passed over a bead-only and an intein column; 10 mM sodium phosphate pH 7.4, 5 mM EDTA, 0.1 mM EGTA, 4°C; bound proteins eluted with a 0-500 mM NaCl gradient (peak at 50-100 mM NaCl); LC-MS/MS; only the target purified
row,Binder,binding
1,"Heterogeneous nuclear ribonucleoprotein H (protein, UniProt Q8VHV7 1-449) MMLGAEGGEGFVVKVRGLPWSCSADEVQRFFSDCKIQNGAQGIRFIYTREGRPSGEAFVELESEDEVKLALKKDRETMGHRYVEVFKSNNVEMDWVLKHTGPNSPDTANDGFVRLRGLPFGCSEEEIVQFFSGLEIVPNGITLPVDFQGRSTGEAFVQFASQEIAEKALKKHKERIGHRYIEIFKSSRAEVRTHYDPPRKLMAMQRPGPYDRPGAGRGYNSIGRGAGFERMRRGAYGGGYGGYDDYNGYNDGYGFGSDRFGRDLNYCFSGMSDHRYGDGGSTFQSTTGHCVHMRGLPYRATENDIYNFFSPLNPVRVHIETGPDGRVTGEADVEFATHEDAVAAMSKDKANMQHRYVELFLNSTAGASGGAYEHRYVELFLNSTAGASGGAYGSQMMGGMGLSNQSSYGGPASQQLSGGYGGGYGGQSSMSGYDQVLQENSSDFQSNIA",binds
2,"High mobility group protein 2 (HMGB-2) (protein, UniProt P52925 1-210) MGKGDPNKPRGKMSSYAFFVQTCREEHKKKHPDSSVNFAEFSKKCSERWKTMSAKEKSKFEDLAKSDKARYDREMKNYVPPKGDKKGKKKDPNAPKRPPSAFFLFCSEHRPKIKSEHPGLSIGDTAKKLGEMWSEQSAKDKQPYEQKAAKLKEKYEKDIAAYRAKGKSEVGKKGPGRPTGSKKKNEPEDEEEEEEEEDDEDEEEEDEDEE",binds

# More lines, now with the values ahead:
row,binding,Binder
1,binds,"Nuclear pore complex protein Nup107 (protein, UniProt P52590 1-926) MDRSGFGGMSSPVIRDPEVTRTARKHSAHKRVLIQANQDENFGTTTPRSQIIPRTPSSFRQPFTPPSRSLLRHPDISYIFGTEGRSPRHIQSSGYLGNLSMVTNLDDSNWAAAFSSQRLGFYTNTEHHSMTEDINLSTVMLREDDPGEAASMSMFSDFLQSFLKHSSTTVFDLVEEYENICASQVNILSKIVSRATRWDWQKFSKTASMLWLLQQEMVTWRLLASLYRDRIQSSLEEENMFAIAGINASEKTVVEALFQRDSLVRQSQLVVDWLESIAKDEIGDFSDNIEFYAKSVYWENTLHSLKQRQLLSYIGSTRPLVTELDPDAPIRQKMPLDDLDREDEVRLLKYLFTLIRAGMTEEAQRLCKRCGQAWRAATLEGWKLHHDPNVNGGTELEPVEGNPYRRIWKISCWRMAEDELFNKYERAIYAALSGNLKQLLPVCDTWEDTVWAYFRVMVDSLVEQEIRTSVMTLDETEELPREYMEANWTLEKVFEELQATDKKRVLEENQEHYHVVQKFLILGDIDGLMDEFSKWLSKSRSSLPGHLLRFMTHLILFFRTLGLQTKEEVSIEVLKTYIQLLINEKHTNLIAFYTCHLPQDLAVAQYALFLEGVTECEQRHQCLELAKEADLDVATITKTVVENIRKKDNGEFSHHDLAPSLDTATTEEDRLKIDVIDWLVFDPAQRAEALRQGNAIMRKFLALKKHEAAKEVFVKIPQDSIAEIYNQWEEQGMESPLPAEDDNAIREHLCIRAYLEAHETFNERFKHMNSAPQKPTLLSQATFTEKVAHEHKEKKYEMDHNIWKGHLDALTADVKEKMYNVLLFVDGGWMVDVREDAEEDPERAHQMVLLRKLCLPMLCFLLHTILHSTGQYQECLQLADMVSSERHKLYLVFSKEELRKLLQKLRESSLMLLDQGLDPLGYEIQS"
2,binds,"Sjogren syndrome antigen B, SSB (protein, UniProt P38656 1-415) MAENGDNEKMAALEAKICHQIEYYFGDFNLPRDKFLKEQIKLDEGWVPLETMIKFNRLNRLTTDFNVIVQALSKSKANLMEVSADKTKIRRSPSRPLPEVTDEYKNDVKNRSVYIKGFPTDATLDDIKEWLDDKGQILNIQMRRTLHKTFKGSIFAVFDSIQSAKKFVDTPGQKYKDTNLLILFKEDYFAKKNEERKQSKVEAKLKAKQEHEGRHKPGSTETRALEGKMGCLLKFSGDLDDQTCREDFHFLFSNHGEIKWIDFVRGAKEGIILFKEKAKDALEKARSANNGNLLLRNKKVTWKVLEGHAEKDAMKKITDDQQESLNKWKSKGGHAARRFKGSHVFTAARRFKGRGKGNRPAYAGAPKGRGQFQGRRTRFDDDDHRRGPVKRGIDGRDREEPASKHKKRENGARDK"
3,binds,"Methionine adenosyltransferase 2 subunit beta, MATβ (protein, UniProt Q5U2R0 1-334) MVGREKELSIHFVPGCCQLVEEEVNIPSRRVLITGATGLLGRAVYKEFQQSNWHAVGCGFRRARPKFEQVNLLDSEAVHHLIHDFQPHVIVHCAAERRPDVVESQPDAASQLNVGASGNLAKEAAAIGAFLIYISSDYVFDGTNPPYTEEDIPSPLNLYGKTKLDGEKAVLENNLGAAVLRIPVLYGEVEKLEESAVTVMFDKVQFSNKSANMDHWQQRFPTHVKDVASVCRQLAEKRMLDPSIKGTFHWSGNEQMTKYEMACAIADAFNLPSSHLRPITDSPVIGAQRPKNAQLDCSKLETLGIGQRTPFRIGIKESLWPFLIDKRWRQTVFH"

# Results are given in words; binding and its absence hold for the method and conditions named. Binding seen in cells or lysates may run through a third protein. A yes stands for co-enrichment or nearness to the bait. Other partners may have been found.
